No constants are given. Whether binding was seen depends on the method and setting. For some of these results: Binding seen in cells or lysates may run through a third protein. Some binding calls cover weakened binding; strength is not graded here.
Legend:
[1] = target: FADD-TAP (Fas-associated death domain protein with a C-terminal TAP affinity tag) (UniProt Q13158); experiment: pull-down
[2] = target: Fas-associated death domain protein (FADD), native (human (endogenous in Jurkat, BJAB, MCF-7)) (UniProt Q13158); experiment: co-IP
[3] = target: CD95 (Fas/Apo1) (human (endogenous in BJAB, Jurkat)) (UniProt P25445); experiment: co-IP
[4] = target: FADD-TAP (Fas-associated death domain protein with a C-terminal TAP affinity tag) (UniProt Q13158); experiment: SEC

Amino acid sequences for entries named in this document (tags omitted). Residues count along the entry.
UniProt Q13158, whole entry: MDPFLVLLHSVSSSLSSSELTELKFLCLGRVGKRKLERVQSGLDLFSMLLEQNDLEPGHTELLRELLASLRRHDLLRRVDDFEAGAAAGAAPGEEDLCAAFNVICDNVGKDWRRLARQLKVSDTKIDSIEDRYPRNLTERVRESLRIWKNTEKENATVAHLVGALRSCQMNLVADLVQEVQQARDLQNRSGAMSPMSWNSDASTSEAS
UniProt P25445, 26-335: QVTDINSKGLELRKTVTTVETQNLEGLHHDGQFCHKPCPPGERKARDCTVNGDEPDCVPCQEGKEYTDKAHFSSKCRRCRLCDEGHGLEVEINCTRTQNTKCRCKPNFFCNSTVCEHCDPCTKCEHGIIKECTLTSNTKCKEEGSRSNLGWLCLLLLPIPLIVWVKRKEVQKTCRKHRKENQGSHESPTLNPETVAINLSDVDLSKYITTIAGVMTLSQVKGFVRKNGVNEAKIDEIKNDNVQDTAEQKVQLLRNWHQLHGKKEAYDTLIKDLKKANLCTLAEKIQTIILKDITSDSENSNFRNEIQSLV
UniProt Q9H1R3, whole entry: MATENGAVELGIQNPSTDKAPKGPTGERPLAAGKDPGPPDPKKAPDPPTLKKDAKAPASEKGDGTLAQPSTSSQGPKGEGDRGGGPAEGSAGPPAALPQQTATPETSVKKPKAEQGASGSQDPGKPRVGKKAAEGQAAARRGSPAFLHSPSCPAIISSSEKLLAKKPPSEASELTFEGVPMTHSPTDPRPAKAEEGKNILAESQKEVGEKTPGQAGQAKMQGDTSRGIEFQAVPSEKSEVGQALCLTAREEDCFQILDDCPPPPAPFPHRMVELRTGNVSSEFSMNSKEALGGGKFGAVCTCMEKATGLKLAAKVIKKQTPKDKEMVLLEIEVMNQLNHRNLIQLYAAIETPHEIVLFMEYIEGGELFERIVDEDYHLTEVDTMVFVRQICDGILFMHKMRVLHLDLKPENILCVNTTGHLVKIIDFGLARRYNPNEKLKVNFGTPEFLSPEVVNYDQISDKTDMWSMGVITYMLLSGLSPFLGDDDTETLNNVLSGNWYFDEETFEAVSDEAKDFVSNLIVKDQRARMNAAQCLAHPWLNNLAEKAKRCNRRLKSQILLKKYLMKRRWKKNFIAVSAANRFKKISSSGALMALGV

Measured: binding

Myosin Light Chain Kinase 2 (MYLK2) (from UniProt Q9H1R3 1-596) (enzyme)
binds: [1] | [2] | [3] | [4]

Reference: doi:10.1101/2021.03.25.436271
